Results reported in PubChem BioAssay AID493014 (National Center for Advancing Translational Sciences (NCATS), 2011).
Hit rate of the full screen: of about 340,000 compounds, about 170 (0.05%) were called active. Inconclusive results, whose numbers are uncertain, are shown with a selection of clear calls. The call rests on the fitted dose curve; in most records, active means well fitted inhibition curve with a large enough effect in the signal ratio, with a control signal flat (not every such curve was filed as active); inconclusive means small, poorly fitted or top-dose-only effect, or effect the other way, or a change in a side signal; inactive means flat fitted curve, though single readings scatter; the % refers to the signal ratio. Where the call is inconclusive, the potency comes from a doubtful curve fit.

Assay: qHTS Assay to Find Inhibitors of Chronic Active B-Cell Receptor Signaling;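 on activity change, negative = inhibition: plate controls were basal doxycycline-induced cells for no effect and cells given 10 µM MG132 for full effect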
Settings: ABC-DLBCL IkBa-CBG/CBR reporter, luminescence ratio (green luciferase fused to IkBa over red control in TMD8 lymphoma cells), 4 h; activity change, negative = inhibition: at 46.1 µM (top of the series)
How it was run: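 TMD8 human ABC-DLBCL cells with doxycycline-inducible IκBα–green luciferase fusion and unfused red luciferase, in 0.5% FBS medium; compounds up to 46 uM, 4 h at 37C. Green/red luminescence ratio, filter-overlap corrected, fitted to concentration-response curves.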
Potency means the concentration at half of the fitted maximal effect.

Compound | Potency | activity change, negative = inhibition
COc1ccc(-c2n[nH]c(C(F)(F)F)c2-c2cc3ccccc3o2)c(O)c1 | inconclusive: 35.5 µM [falling, single point] | –
N=c1c2c(n(Cc3ccc(Cl)cc3Cl)c3c1CCC3)CCCC2 | – | inconclusive: 2.67%
C=C1C[C@@H]2[C@H](CC[C@]3(C)C(=O)CC[C@@H]23)[C@@]2(C)C=CC(=O)C=C12 | inconclusive: 35.5 µM [falling, single point] | –
CC1CCC(C(C)C)C(OC(=O)Cn2c(-c3ccc(Br)cc3)[n+](C)c3ccccc32)C1 (stereo unspecified) | – | inconclusive: -1.82%
Oc1cc(O)cc(/C=C/c2ccc(O)cc2O)c1 | inconclusive: 18.4 µM [falling, single point] | –
Cc1cc(C(=O)O)c(C)n1C1CC1 | – | inconclusive: -1.28%
COC(=O)C1=C(c2ccc(OC(F)(F)F)cc2)C[C@@H]2CC[C@H]1N2C(=O)NCCOc1ccccc1Cl | – | inconclusive: 3.26%
Cc1cc(OCC(=O)NCc2ccncc2)c2c3c(c(=O)oc2c1)CCCC3 | – | inactive
COc1ccc(C2CC(c3c(O)n(CCc4ccccc4)c(=O)[nH]c3=O)=NN2)cc1OC (stereo unspecified) | – | inactive
CCC1C(C#N)=C(N)Oc2c1c(=O)oc1ccccc21 (stereo unspecified) | – | inconclusive: -9.66%
CN(C)c1ccc(C(=O)N/N=C/C23CC[C@@H](O)CC2(O)CC[C@@H]2[C@@H]3CCC3(C)C(C4=CC(=O)OC4)CCC23O)cc1 (stereo partly specified) | – | inactive
CCc1ccc(N2C(=O)NC(=O)/C(=C/c3cccn3CCOc3ccc(C(C)CC)cc3)C2=O)cc1 (stereo unspecified) | – | inconclusive: 26.5%
COc1ccc(CCNCc2sccc2C)cc1OC | – | inconclusive: -13%
Cc1ccccc1CC(=O)N(CCN(C)C)CC1CCCN(Cc2ccccc2F)C1 (stereo unspecified) | – | inconclusive: -10.6%
COc1ccc(N2C(=O)NC(=O)/C(=C/c3ccc4c(c3)Cc3ccccc3-4)C2=O)cc1 | inconclusive: 5.62 µM [rising, partial curve, poor fit] | –
Cc1ccc(N(C)C(=O)Oc2ccc(C(=O)c3ccc(Cl)cc3)cc2)cc1 | – | inconclusive: 0.97%
C(=C\c1ccc2ccccc2n1)/c1ccccc1 | inconclusive: 5.62 µM [falling, partial curve] | –
O=[N+]([O-])c1ccc(N2CCNCC2)cc1N1CCCCC1 | inconclusive: 8.91 µM [falling, partial curve] | –
C=CCn1c(O)c(C(C)=NCCC(c2ccccc2)c2ccccc2)c(=O)[nH]c1=O | – | inactive
O=C1NC(=O)N(c2ccc3c(c2)OCO3)C(=O)/C1=C/c1ccc(N2CCCCC2)o1 | – | inactive
O=C1C2CCCN2C(c2cccnc2)N1c1cccc(Cl)c1 (stereo unspecified) | – | inconclusive: 6.81%

Molecules above that have four or more nitrogen atoms (two):
Compound | Potency | activity change, negative = inhibition
COc1ccc(C2CC(c3c(O)n(CCc4ccccc4)c(=O)[nH]c3=O)=NN2)cc1OC (stereo unspecified) | – | inactive
O=[N+]([O-])c1ccc(N2CCNCC2)cc1N1CCCCC1 | inconclusive: 8.91 µM [falling, partial curve] | –

(more compounds)

Compound | Potency | activity change, negative = inhibition
Cc1ccc(Cn2cccc(C(=O)Nc3ccc4c(c3)OCO4)c2=O)cc1 | – | inactive
O=C(CCN1CCCCC1)Nc1ccc(Cl)cc1C(=O)c1ccccc1 | – | inconclusive: -11.6%
Cc1ccc(C2N(c3cc(C)on3)C(=O)C3CCCN32)cc1 (stereo unspecified) | – | inactive
O=c1[nH]c(=O)n(-c2cccc(Cl)c2)c(O)c1C=NCCN1CCCCC1 | – | inactive
CCSc1nc2n(n1)C(c1ccc(Cl)cc1Cl)C(C(=O)Nc1ccccc1C)=C(C)N2 (stereo unspecified) | – | inconclusive: -11.4%
CN1C(=O)C(Cc2cccc3ccccc23)C(=O)N(C)C1=O | – | inconclusive: 11.9%
COc1ccc(N/N=C/c2c(O)n(-c3ccc(C)c(C)c3)c(=O)[nH]c2=O)cc1 | – | inactive
O=[N+]([O-])c1cc(Cl)c(O)c(-[n+]2c(-c3ccccc3)cc(-c3ccccc3)cc2-c2ccccc2)c1 | – | inconclusive: -1.28%
CCOC(=O)CSc1ccc2ccccc2n1 | inconclusive: 6.31 µM [rising, partial curve, poor fit] | –
CCSc1nnc([C@@H](N)Cc2c[nH]c3ccccc23)o1 | – | inconclusive: 1.53%
Cc1nn(CC(=O)N2CCC3(CC2)OCCO3)c(=O)c2cc3ccccc3n12 | – | inactive
O=C(O)c1cc[c]([Hg][Cl])cc1 | inconclusive: 20.6 µM [falling, partial curve] | –
CCC(C)OC(=O)c1c(N)n(Cc2cccs2)c2nc3ccccc3nc12 (stereo unspecified) | inconclusive: 0.366 µM [rising, full curve, poor fit] | –
COc1ccc2c(c1)NP(=S)(Oc1ccccc1)N2 (stereo unspecified) | – | inconclusive: 24.7%
CCCCCn1c(=O)c(C(=O)Nc2ccccc2Cl)c(O)c2ccccc21 | – | inactive
OC1C2CN3CN(C2)CC1(c1ccccc1)C3 (stereo unspecified) | – | inconclusive: -2.02%
COC(=O)C1=C(c2ccc(-c3ccccc3)c(F)c2)C[C@@H]2CC[C@H]1N2C(=O)N1CCC(C)CC1 | – | inconclusive: 3.49%
CCOC(=O)C1(CCc2ccccc2)CCN(Cc2cccc3c2OCO3)CC1 | – | inconclusive: 10.9%
CC12CC[C@H]3[C@@H](CCC4(O)C[C@H](O)CCC34/C=N/NC(=O)c3ccccc3[N+](=O)[O-])C1(O)CCC2C1=CC(=O)OC1 (stereo partly specified) | – | inconclusive: 13.9%
O=C1NC(=S)N(c2ccccc2F)C(=O)/C1=C\c1cccs1 | – | inactive
Cc1cnc(NC(=O)CN2CCCCC2)s1 | – | inactive

Compound | Potency | activity change, negative = inhibition
CC(C)(C)c1nc(N2CCN(C(=O)c3ccco3)CC2)c2nnn(Cc3ccccc3Cl)c2n1 | – | inactive
CCCCn1c(N)c(N(CCOC)C(=O)CN2CC=C(c3ccccc3)CC2)c(=O)[nH]c1=O | – | inconclusive: 1.2%
CCOC(=O)C(O)(c1ccc(N(C)C(=O)c2ccc(Cl)c(Cl)c2)cc1)C(F)(F)F (stereo unspecified) | – | inconclusive: -2.3%
O=c1[nH]c(O)c(N=Nc2ccc3c(c2)OCCO3)c(=O)[nH]1 | – | inconclusive: -14.4%
CC(C(=O)c1ccc(Cl)cc1Cl)n1cncn1 (stereo unspecified) | – | inactive
O=C1NC(=O)[C@]2(Cc3ccccc3N3CCN(c4ccccc4)CC32)C(=O)N1Cc1ccccc1 (stereo partly specified) | inconclusive: 8.91 µM [falling, partial curve] | –
CCN1C(=O)N(CC)C(=O)C2(Cc3ccccc3N3CCN(c4ccccc4)CC32)C1=O (stereo unspecified) | inconclusive: 11.2 µM [falling, partial curve] | –
CN1CCC(OC(=O)Cc2ccccc2)CC1 | – | inactive
COc1cccc(OC)c1C1=NCC(=O)Nc2c1oc1ccc(Br)cc21 | inconclusive: 11.6 µM [falling, partial curve] | –
COc1cc(OC)c(OC)cc1/C=C1/C(=O)NC(=O)N(Cc2ccccc2)C1=O | – | inactive
Cc1ccc2cccc(OC(=O)N3CCCC3)c2n1 | – | inconclusive: 16.6%
CN1CCN(/N=C/c2c(O)n(Cc3ccc(F)cc3)c(=O)[nH]c2=O)CC1 | – | inactive
COc1ccc(N2CCN(Cc3nc4ccccc4[nH]3)CC2)cc1 | – | inconclusive: 1.28%
COCCNC(=O)c1c(NC(=O)c2ccc(Br)o2)n(Cc2ccccc2)c2nc3ccccc3nc12 | inconclusive: 32.6 µM [falling, partial curve, poor fit] | –
CCn1c(O)c(C=NCc2cccs2)c(=O)n(CC)c1=S | – | inconclusive: 19.6%
COc1ccc(C(=O)C2CCCN(Cc3ccccn3)C2)c(OC)c1 (stereo unspecified) | – | inactive
O=C1Nc2ccc(Br)cc2C(c2ccc(Cl)cc2)=NC1O (stereo unspecified) | – | inactive
Cc1c(N=Cc2c(O)n(CCc3ccccc3)c(=O)[nH]c2=O)c(=O)n(-c2ccccc2)n1C | – | inconclusive: 0.831%
CCC1=Nc2cc(C(=O)N3CCC4(CC3)OCCO4)ccc2Sc2ccc(C)cc21 | – | inactive
Nc1c2c(nc3sc4c(c13)CCCC4)CCCCC2 | – | inactive
CCN(CC)C(=O)c1ccc(NC(=O)c2cccc(F)c2)cc1 | – | inconclusive: 14.8%

Part of the list above, as a markdown table.

| Compound | Potency | activity change, negative = inhibition |
| --- | --- | --- |
| CC(C)(C)c1nc(N2CCN(C(=O)c3ccco3)CC2)c2nnn(Cc3ccccc3Cl)c2n1 | – | inactive |
| O=c1[nH]c(O)c(N=Nc2ccc3c(c2)OCCO3)c(=O)[nH]1 | – | inconclusive: -14.4% |
| COc1ccc(C(=O)C2CCCN(Cc3ccccn3)C2)c(OC)c1 (stereo unspecified) | – | inactive |

Additional structures follow.

Compound | Potency | activity change, negative = inhibition
O=C(CN1CC=C(c2ccccc2)CC1)Nc1cc(Cl)ccc1Cl | – | inactive
CC/C(=N\N1CCCCCC1)c1c(O)n(-c2ccc(C)cc2)c(=O)[nH]c1=O | – | inactive
COc1ccc(NC2=NCC(C)S2)cc1 (stereo unspecified) | – | inconclusive: -3.07%
COC(=O)C1=C(c2ccc(OC)c(OC)c2)C[C@@H]2CC[C@H]1N2C(=O)N1CCC(O)CC1 | – | inactive
C=CCn1c(O)c(C(C)=NCCN2CCCCC2)c(=O)[nH]c1=O | – | inconclusive: 29.1%
COC(=O)C1CN(C#N)N(c2ccc(Cl)cc2)C12c1ccccc1-c1ccccc12 (stereo unspecified) | inconclusive: 7.31 µM [rising, partial curve, poor fit] | –
OCC[n+]1c2ccccc2nc2ccc(N3CCOCC3)cc21 | inconclusive: 3.16 µM [rising, partial curve, poor fit] | –
c1ccc2c(CNC3CCCCCC3)c[nH]c2c1 | – | inconclusive: 13.2%
Cc1cccc(CNCCc2c[nH]c3ccccc23)c1 | – | inconclusive: -15.3%
COC(=O)C1=C(c2cccc(C#N)c2)C[C@@H]2CC[C@H]1N2C(=O)N1CCC(C)CC1 | – | inactive
O=[N+]([O-])c1cc(C(F)(F)F)ccc1Cl | – | inconclusive: 8.25%
O=C(Nc1ccc(S(=O)(=O)N2CCOCC2)cc1)c1cc([N+](=O)[O-])ccc1Cl | inconclusive: 35.5 µM [falling, single point] | –
CN1C(=O)N(C)C(=O)C2(Cc3c(nc4ccccn4c3=O)N3CCC(Cc4ccccc4)CC32)C1=O (stereo unspecified) | – | inactive
CC(=O)[C@@]1(O)CCC2C3CC=C4C[C@@H](O)CC[C@]4(C)C3CC[C@@]21C (stereo partly specified) | – | inconclusive: 8.18%
COc1ccc(CN2C(=O)NC(=O)/C(=C/c3ccc([N+](=O)[O-])o3)C2=O)cc1 | – | inactive
COc1ccc(CCNC(=O)c2c(N)n(CCN3CCOCC3)c3nc4ccccc4nc23)cc1OC | – | inconclusive: -1.12%
c1ccc2c3c([nH]c2c1)CNCC3 | – | inconclusive: -3.73%
N#Cc1ccc(NC(=O)CN2C(=O)NC3(CCCCCCC3)C2=O)cc1Cl | – | inconclusive: 3.31%
